The results in this text go back to patent US12410228B2 (UNIVERSITY OF UTAH RESEARCH FOUNDATION, priority 2016, dated 2025).

The series in a line: general procedure: Fmoc solid-phase peptide synthesis; Fmoc-Cys(Trt)-Rink Amide MBHA resin (0.21 mmol/g) for chain A; Fmoc-Arg(Pbf)-Wang resin (0.4 mmol/g) for chain B; HATU/DIEA. The note with it: for isolated mass: whole synthesis, scale 0.1 mmol.

Where the note is “oxidative folding step, based on the starting amount of 7 umol”, Con-Ins G1 (partially folded) came in with an oxidative folding yield of 12.1%.
With GVVyHCCHRPCSNAEFKKYC*, the isolated mass is recorded as 18.7 mg.
The substance TFDTOKHRCGSyITNSYMDLCYR registered an isolated mass of 25.9 mg.
Take sCon-Ins G1[GluA4, ProB3, GluB10]: the “final HPLC purity” value (oxidative folding step, RP-HPLC (214 and 280 nm) and capillary electrophoresis, several disulfide bridges) worked out at 97%. The same substance came in with an oxidative folding yield (oxidative folding step, several disulfide bridges) of 14%.
In turn, “sCon-Ins G1[GluA4, ProB3, GluB10] (partially folded)” gave an oxidative folding yield (oxidative folding step) of 28%.
